Literature values as cited in US5342604A (The Dow Chemical Company, priority 1992, dated 1994).
At least one compound was matched to its structure with a doubt left.

Conditions: cited from earlier work

## [89Sr] [Strontium-89]
  blood levels: high blood levels
  lesion to normal bone ratios: low lesion to normal bone ratios
